Here are results for one molecule from article PMC11736007.

Chains of the proteins cited; added tags and fusions are not shown.
UniProt Q96D31: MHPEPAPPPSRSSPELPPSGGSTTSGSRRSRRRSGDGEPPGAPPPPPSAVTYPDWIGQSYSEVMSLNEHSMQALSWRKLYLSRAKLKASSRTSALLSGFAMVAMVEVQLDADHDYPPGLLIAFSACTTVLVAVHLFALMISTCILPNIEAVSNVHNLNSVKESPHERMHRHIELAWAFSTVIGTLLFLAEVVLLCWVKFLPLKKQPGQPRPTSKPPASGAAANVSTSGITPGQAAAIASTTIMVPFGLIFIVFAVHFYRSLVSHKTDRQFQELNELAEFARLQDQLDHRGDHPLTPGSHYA

In assay [1] the target is Orai1α-eGFP (UniProt Q96D31). Put plainly: FRET or BRET; acceptor photobleaching FRET in living Orai1-KO MCF7 cells; eGFP donor on Orai1, mCherry acceptor on SPCA2; nine ROIs a cell (cytosol, Golgi, plasma membrane); confocal microscope, Hepes-buffered saline. In general terms: BRET reads energy transfer from a luciferase to a nearby fluorophore.
Assay [2] has as its target Orai1α-eGFP (UniProt Q96D31). In words: co-IP; Orai1-KO MCF7 cells co-transfected with an Orai1 variant and mCherry-SPCA2; lysis in 1% IGEPAL CA-630 buffer pH 8; immunoprecipitation with anti-Orai1 antibody and protein A-agarose at 4 °C overnight; Western blot with anti-mCherry; signal normalised to input and to immunoprecipitated Orai1.

Results are given in words; binding and its absence hold for the method and conditions named. Binding seen in cells or lysates may run through a third protein. Some entries that bind do so weakly or less than the wild type.

B1: mCherry-SPCA2 (protein, UniProt O75185 1-946)
chain: MVEGRVSEFLKKLGFSGGGRQYQALEKDEEEALIDEQSELKAIEKEKKVTALPPKEACKCQKEDLARAFCVDLHTGLSEFSVTQRRLAHGWNEFVADNSEPVWKKYLDQFKNPLILLLLGSALVSVLTKEYEDAVSIATAVLVVVTVAFIQEYRSEKSLEELTKLVPPECNCLREGKLQHLLARELVPGDVVSLSIGDRIPADIRLTEVTDLLVDESSFTGEAEPCSKTDSPLTGGGDLTTLSNIVFMGTLVQYGRGQGVVIGTGESSQFGEVFKMMQAEETPKTPLQKSMDRLGKQLTLFSFGIIGLIMLIGWSQGKQLLSMFTIGVSLAVAAIPEGLPIVVMVTLVLGVLRMAKKRVIVKKLPIVETLGCCSVLCSDKTGTLTANEMTVTQLVTSDGLRAEVSGVGYDGQGTVCLLPSKEVIKEFSNVSVGKLVEAGCVANNAVIRKNAVMGQPTEGALMALAMKMDLSDIKNSYIRKKEIPFSSEQKWMAVKCSLKTEDQEDIYFMKGALEEVIRYCTMYNNGGIPLPLTPQQRSFCLQEEKRMGSLGLRVLALASGPELGRLTFLGLVGIIDPPRVGVKEAVQVLSESGVSVKMITGDALETALAIGRNIGLCNGKLQAMSGEEVDSVEKGELADRVGKVSVFFRTSPKHKLKIIKALQESGAIVAMTGDGVNDAVALKSADIGIAMGQTGTDVSKEAANMILVDDDFSAIMNAVEEGKGIFYNIKNFVRFQLSTSISALSLITLSTVFNLPSPLNAMQILWINIIMDGPPAQSLGVEPVDKDAFRQPPRSVRDTILSRALILKILMSAAIIISGTLFIFWKEMPEDRASTPRTTTMTFTCFVFFDLFNALTCRSQTKLIFEIGFLRNHMFLYSVLGSILGQLAVIYIPPLQRVFQTENLGALDLLFLTGLASSVFILSELLKLCEKYCCSPKRVQMHPEDV
Take B1: the binding result in assay [1] and in assay [2] was “binds” in each case.
